Drawing on doi:10.1101/2023.09.12.557183, this text covers binding for 3 substances.

Protein sequences, listed by entry. Tags and fused reporters are not part of them. Residues count along the entry.
UniProt P17931: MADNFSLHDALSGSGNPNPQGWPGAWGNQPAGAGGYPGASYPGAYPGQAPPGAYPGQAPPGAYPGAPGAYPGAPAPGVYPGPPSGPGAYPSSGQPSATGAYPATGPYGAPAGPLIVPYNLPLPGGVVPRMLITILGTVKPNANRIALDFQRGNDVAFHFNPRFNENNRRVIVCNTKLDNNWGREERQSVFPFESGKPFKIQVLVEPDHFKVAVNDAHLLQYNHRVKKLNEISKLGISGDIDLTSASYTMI
UniProt P17301, residues 30-1181: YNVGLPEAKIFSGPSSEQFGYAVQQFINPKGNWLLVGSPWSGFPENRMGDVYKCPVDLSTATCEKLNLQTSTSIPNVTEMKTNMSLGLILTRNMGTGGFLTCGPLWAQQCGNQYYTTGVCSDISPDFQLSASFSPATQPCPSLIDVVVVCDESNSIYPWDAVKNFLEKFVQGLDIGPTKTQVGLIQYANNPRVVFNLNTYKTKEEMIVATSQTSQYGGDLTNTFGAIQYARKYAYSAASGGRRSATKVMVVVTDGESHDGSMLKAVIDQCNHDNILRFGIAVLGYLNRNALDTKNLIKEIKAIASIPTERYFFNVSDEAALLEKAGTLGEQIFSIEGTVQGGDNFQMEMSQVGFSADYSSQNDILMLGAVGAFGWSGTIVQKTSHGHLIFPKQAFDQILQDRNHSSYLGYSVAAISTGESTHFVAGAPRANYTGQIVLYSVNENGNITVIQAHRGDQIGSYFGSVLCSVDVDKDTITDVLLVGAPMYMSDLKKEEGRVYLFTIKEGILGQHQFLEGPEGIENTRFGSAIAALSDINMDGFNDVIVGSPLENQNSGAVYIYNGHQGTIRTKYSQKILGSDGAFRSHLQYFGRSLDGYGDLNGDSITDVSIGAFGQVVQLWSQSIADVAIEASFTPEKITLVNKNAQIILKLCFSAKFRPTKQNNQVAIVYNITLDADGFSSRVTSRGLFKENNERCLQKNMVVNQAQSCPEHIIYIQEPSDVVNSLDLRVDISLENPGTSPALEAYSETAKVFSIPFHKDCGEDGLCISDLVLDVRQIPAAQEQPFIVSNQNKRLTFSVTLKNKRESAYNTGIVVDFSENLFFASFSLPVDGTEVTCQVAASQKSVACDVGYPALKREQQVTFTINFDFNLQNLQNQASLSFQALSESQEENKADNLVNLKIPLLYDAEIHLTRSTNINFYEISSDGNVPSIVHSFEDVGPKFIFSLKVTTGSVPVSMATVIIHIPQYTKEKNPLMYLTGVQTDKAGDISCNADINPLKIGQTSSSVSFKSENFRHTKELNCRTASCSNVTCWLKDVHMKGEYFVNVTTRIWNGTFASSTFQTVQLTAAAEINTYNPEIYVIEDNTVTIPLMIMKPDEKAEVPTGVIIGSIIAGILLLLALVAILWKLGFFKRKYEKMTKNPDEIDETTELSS
UniProt P48960, residues 21-835: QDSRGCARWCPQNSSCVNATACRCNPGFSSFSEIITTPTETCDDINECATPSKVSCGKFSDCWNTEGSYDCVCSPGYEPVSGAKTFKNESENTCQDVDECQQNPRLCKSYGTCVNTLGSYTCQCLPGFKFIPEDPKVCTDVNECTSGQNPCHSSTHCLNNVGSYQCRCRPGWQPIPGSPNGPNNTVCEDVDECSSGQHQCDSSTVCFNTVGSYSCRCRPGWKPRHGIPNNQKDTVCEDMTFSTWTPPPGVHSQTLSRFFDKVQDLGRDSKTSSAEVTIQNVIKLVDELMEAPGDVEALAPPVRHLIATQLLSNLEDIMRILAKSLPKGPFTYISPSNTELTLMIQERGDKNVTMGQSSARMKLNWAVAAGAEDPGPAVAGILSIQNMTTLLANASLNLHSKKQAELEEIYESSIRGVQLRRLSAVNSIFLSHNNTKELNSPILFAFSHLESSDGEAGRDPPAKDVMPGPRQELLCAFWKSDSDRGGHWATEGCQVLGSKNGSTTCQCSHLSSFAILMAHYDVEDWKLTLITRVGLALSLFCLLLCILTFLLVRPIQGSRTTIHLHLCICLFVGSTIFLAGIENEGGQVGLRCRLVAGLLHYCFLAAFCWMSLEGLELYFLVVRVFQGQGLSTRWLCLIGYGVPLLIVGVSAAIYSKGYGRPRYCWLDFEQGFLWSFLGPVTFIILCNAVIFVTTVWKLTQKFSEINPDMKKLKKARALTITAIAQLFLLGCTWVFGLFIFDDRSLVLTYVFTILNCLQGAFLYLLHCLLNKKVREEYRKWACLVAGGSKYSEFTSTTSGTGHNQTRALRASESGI
UniProt P16070, residues 21-742: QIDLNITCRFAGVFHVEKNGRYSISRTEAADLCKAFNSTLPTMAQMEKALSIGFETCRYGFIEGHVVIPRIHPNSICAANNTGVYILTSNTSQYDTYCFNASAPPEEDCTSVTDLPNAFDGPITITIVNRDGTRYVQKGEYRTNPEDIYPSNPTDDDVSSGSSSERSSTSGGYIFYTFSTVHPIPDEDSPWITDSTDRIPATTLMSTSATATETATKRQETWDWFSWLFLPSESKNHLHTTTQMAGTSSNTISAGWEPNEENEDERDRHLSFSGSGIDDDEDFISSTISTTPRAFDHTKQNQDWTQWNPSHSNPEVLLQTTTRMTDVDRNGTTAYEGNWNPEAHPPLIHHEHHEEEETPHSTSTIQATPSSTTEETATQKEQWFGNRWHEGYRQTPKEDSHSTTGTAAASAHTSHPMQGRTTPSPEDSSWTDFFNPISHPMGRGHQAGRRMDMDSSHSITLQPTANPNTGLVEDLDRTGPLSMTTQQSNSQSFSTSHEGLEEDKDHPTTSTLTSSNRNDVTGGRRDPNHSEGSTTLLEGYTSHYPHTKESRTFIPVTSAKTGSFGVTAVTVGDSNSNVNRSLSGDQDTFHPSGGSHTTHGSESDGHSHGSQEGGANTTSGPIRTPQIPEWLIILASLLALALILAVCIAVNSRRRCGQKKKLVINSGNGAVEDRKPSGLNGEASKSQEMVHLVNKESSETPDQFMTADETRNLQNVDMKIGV

Like-named read-outs stand apart in the source and are kept apart here. Results are given in words; binding and its absence hold for the method and conditions named. Binding seen in cells or lysates may run through a third protein. These calls come from enrichment with a bait or labelling near it, and not all partners need be listed.

The target of assay [1] is C-term His-tagged Gal3 (Gal3-His) (UniProt P17931). The assay is described as follows: affinity purification with mass spectrometry.
For assay [2] the target is unchanged. As to the kind of experiment: affinity purification with mass spectrometry. The source holds these as a separate data set.

Regarding “α2 integrin (from UniProt P17301 30-1181) (receptor)”, the binding entry in assay [1] was “binds”.
For “G protein coupled receptor CD97 (from UniProt P48960 21-835)”, the binding entry in assay [2] and in assay [1] was “binds” each time.
For the substance “CD44 (from UniProt P16070 21-742) (receptor)”, in assay [1], the binding result is “binds”.
